# The supplement of paper PMC12542422
# Structures can show the parent of a compound that is named as a salt. ± gives the standard deviation of the averaged measurements. Some of the results follow. These are raw signals, not scaled to a control.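 Ribosome-assembly readouts in HeLa cells were imaged via ENP1 staining, with or without export block, or inducible tagged ribosomal protein reporters. Machine learning classified per-cell signal location versus solvent (DMSO) controls. Hits surpassed the DMSO false-positive mean by five standard deviations and were visually confirmed; three biological replicates.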
# System: HeLa K (ENP1 immunofluorescence, no LMB)
# Experiment: fraction of cells with nucleolar or nucleolar/nucleoplasmic ENP1 signal (MainHitrate); higher = more cells with nucleolar/nuclear readout signal (for ENP1 -LMB: less RNAPI inhibition; for +LMB ENP1 and RP reporters: stronger nuclear/nucleolar retention, i.e. ribosome biogenesis defect)
# Settings: concentration: 1 µM; treatment time: 6 h; ENP1 -LMB; leptomycin B: none
row,SMILES,fraction
1,NS(=O)(=O)c1cc2c(cc1C(F)(F)F)NC(Cc1ccccc1)NS2(=O)=O (centres undefined) [Bendroflumethiazide],0.998 ± 0.0035
2,CS(=O)(=O)CCNCc1ccc(-c2ccc3ncnc(Nc4ccc(OCc5cccc(F)c5)c(Cl)c4)c3c2)o1 [Lapatinib Ditosylate (Tykerb)],0.998 ± 0.0034
3,Nc1ccn([C@@H]2O[C@H](CO)[C@@H](O)[C@@H]2O)c(=O)n1 [Cytarabine],0.9974 ± 0.0044
4,CC(C)(S)[C@@H](N)C(=O)O [Penicillamine (Cuprimine)],0.9963 ± 0.0064
5,O=c1cc[nH]c(=O)[nH]1 [Uracil],0.988 ± 0.021
6,C[C@@]12C[C@@]3(O)O[C@@H](O1)[C@]1(COC(=O)c4ccccc4)[C@H]3C[C@@]12O[C@@H]1O[C@H](CO)[C@@H](O)[C@H](O)[C@H]1O [Paeoniflorin],0.993 ± 0.012
7,c1ccc(C2CN3CCSC3=N2)cc1 (centres undefined) [Tetramisole HCl],0.984 ± 0.029
8,NC(=O)N/N=C/c1ccc([N+](=O)[O-])o1 [Nitrofurazone (Nitrofural)],0.9984 ± 0.0027
9,O=C(O)Cc1ccccc1Nc1c(Cl)cccc1Cl [Diclofenac],0.992 ± 0.014
10,CC(C(=O)O)c1ccc2c(c1)[nH]c1ccc(Cl)cc12 (centres undefined) [Carprofen],0.9958 ± 0.0073
11,CC(=O)Nc1ccccc1 [Acetanilide (Antifebrin)],0.988 ± 0.021
12,CCN(CC)CCOc1ccc(C(=C(Cl)c2ccccc2)c2ccccc2)cc1 [Clomifene citrate (Serophene)],0.9959 ± 0.0071
13,CCS(=O)(=O)CCn1c([N+](=O)[O-])cnc1C [tinidazole],0.992 ± 0.013
14,Cc1ccc(-c2cc(C(F)(F)F)nn2-c2ccc(S(N)(=O)=O)cc2)cc1 [Celecoxib],0.9986 ± 0.0024
15,CC(C)(Sc1cc(C(C)(C)C)c(O)c(C(C)(C)C)c1)Sc1cc(C(C)(C)C)c(O)c(C(C)(C)C)c1 [Probucol],0.993 ± 0.012
16,CN1CCC(OC(c2ccccc2)c2ccccc2)CC1 [Diphenylpyraline HCl],0.9991 ± 0.0016
17,C[C@]12CCC(=O)C=C1CC[C@@H]1[C@@H]2[C@@H](O)C[C@@]2(C)[C@H]1CC[C@]2(O)C(=O)CO [Hydrocortisone (Cortisol)],0.9981 ± 0.0032
18,CNC[C@@H](O)c1ccc(O)c(O)c1 [L-Adrenaline (Epinephrine)],0.992 ± 0.013
19,CC(C)Cn1cnc2c(N)nc3ccccc3c21 [Imiquimod],0.9983 ± 0.0029
20,C=C(NC(=O)C(=C)NC(=O)c1csc(C2=N[C@@H]3c4csc(n4)[C@H]4NC(=O)c5csc(n5)[C@H]([C@](C)(O)[C@@H](C)O)NC(=O)[C@H]5CSC(=N5)/C(=C/C)NC(=O)[C@H]([C@@H](C)O)NC(=O)c5csc(n5)[C@]3(CC2)NC(=O)[C@H](C)NC(=O)C(=C)NC(=O)[C@H](C)NC(=O)[C@H]([C@@H](C)CC)N[C@@H]2C=Cc3c([C@H](C)O)cc(nc3[C@H]2O)C(=O)O[C@@H]4C)n1)C(N)=O [Thiostrepton],0.915 ± 0.15

row,SMILES,fraction
1,CC(O)(P(=O)(O)O)P(=O)(O)O [Etidronate (Didronel)],0.991 ± 0.016
2,C[C@@H]1C[C@H]2[C@@H]3CCC4=CC(=O)C=C[C@]4(C)[C@@]3(F)[C@@H](O)C[C@]2(C)[C@@]1(O)C(=O)CO [Dexamethasone],0.999 ± 0.0017
3,O=C(O)c1cc(=O)c2ccccc2o1 [Chromocarb],0.986 ± 0.024
4,COc1ccc([C@@H]2Sc3ccccc3N(CCN(C)C)C(=O)[C@@H]2OC(C)=O)cc1 [Diltiazem HCl (Tiazac)],0.993 ± 0.013
5,CN1CCC(=C2c3ccccc3CC(=O)c3sccc32)CC1 [Ketotifen fumarate (Zaditor)],0.987 ± 0.022
6,Cc1ncc([N+](=O)[O-])n1CC(O)CCl (centres undefined) [Ornidazole],0.984 ± 0.027
7,COc1cc2nc(N3CCN(C(=O)C4CCCO4)CC3)nc(N)c2cc1OC (centres undefined) [Terazosin HCl (Hytrin)],0.9955 ± 0.0078
8,COc1ccccc1OCC(O)CO (centres undefined) [Guaifenesin (Guaiphenesin)],0.9986 ± 0.0024
9,CC(C)c1nc(CN(C)C(=O)N[C@H](C(=O)N[C@@H](Cc2ccccc2)C[C@H](O)[C@H](Cc2ccccc2)NC(=O)OCc2cncs2)C(C)C)cs1 [Ritonavir],0.9969 ± 0.0054
10,CCC1(c2ccccc2)C(=O)NCNC1=O [Primidone (Mysoline)],0.9943 ± 0.0099
11,CS(=O)(=O)c1ccc(C(=O)Nc2ccc(Cl)c(-c3ccccn3)c2)c(Cl)c1 [Vismodegib (GDC-0449)],0.9984 ± 0.0027
12,NC(=O)c1ncn([C@@H]2O[C@H](CO)[C@@H](O)[C@H]2O)c1N [Acadesine],0.9974 ± 0.0045
13,CN(C)CCC(c1ccc(Cl)cc1)c1ccccn1 (centres undefined) [Chlorpheniramine Maleate],0.996 ± 0.0069
14,CC(C)(Oc1ccc(CCNC(=O)c2ccc(Cl)cc2)cc1)C(=O)O [Bezafibrate],0.992 ± 0.013
15,"CN(C)CCOc1ccc(/C(=C(/CCCl)c2ccccc2)c2ccccc2)cc1 [Toremifene Citrate (Fareston, Acapodene)]",0.9993 ± 0.0012
16,Nc1ccc(S(=O)(=O)Nc2nccs2)cc1 [Sulfathiazole],0.987 ± 0.022
17,C[C@]12CC[C@@H]3c4ccc(O)cc4CC[C@H]3[C@@H]1CC[C@@H]2O [Estradiol],0.9986 ± 0.0024
18,C[C@@H]1C/C=C/C=C/C=C/C=C/[C@H](O[C@@H]2O[C@H](C)[C@@H](O)[C@H](N)[C@@H]2O)C[C@@H]2O[C@](O)(C[C@@H](O)C[C@H]3O[C@@H]3/C=C/C(=O)O1)C[C@H](O)[C@H]2C(=O)O [Natamycin (Pimaricin)],0.998 ± 0.0034
19,C[C@](N)(Cc1ccc(O)c(O)c1)C(=O)O [Methyldopa (Aldomet)],0.9991 ± 0.0015

# Copied from the list.
# fraction, `COc1ccc([C@@H]2Sc3ccccc3N(CCN(C)C)C(=O)[C@@H]2OC(C)=O)cc1` [Diltiazem HCl (Tiazac)] is entered as 0.993 ± 0.013
# fraction, `CN(C)CCC(c1ccc(Cl)cc1)c1ccccn1` (centres undefined) [Chlorpheniramine Maleate] is entered as 0.996 ± 0.0069
